Assay [1] deals with T1, mouse MIGA2 residues 275-570, wild type (mouse) (UniProt Q8BK03).
T1 sequence: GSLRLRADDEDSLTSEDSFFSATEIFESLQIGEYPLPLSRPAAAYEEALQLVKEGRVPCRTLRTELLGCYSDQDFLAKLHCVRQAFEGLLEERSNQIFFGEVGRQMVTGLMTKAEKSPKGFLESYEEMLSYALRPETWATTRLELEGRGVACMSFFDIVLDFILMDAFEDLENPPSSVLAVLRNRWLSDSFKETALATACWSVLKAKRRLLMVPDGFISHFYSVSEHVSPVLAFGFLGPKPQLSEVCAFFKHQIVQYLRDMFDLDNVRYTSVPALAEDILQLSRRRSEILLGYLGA
As to the kind of experiment: ITC; mVAPB (wild type or mutant) in the syringe, mMIGA2^275-570 or mMIGA2^pFFAT in the cell; Microcal ITC200, 25 °C, 25 mM Tris-HCl pH 7.5, 150 mM NaCl, 4 mM β-mercaptoethanol; 20 injections of 2 μl; 1:1 binding model; both purified. (Isothermal titration calorimetry measures the heat released or taken up as one component is titrated into another.)

Sequences of proteins named here, by UniProt entry; tags and fusion partners are left off. Residues count along the entry.
UniProt Q9QY76, residues 1-125: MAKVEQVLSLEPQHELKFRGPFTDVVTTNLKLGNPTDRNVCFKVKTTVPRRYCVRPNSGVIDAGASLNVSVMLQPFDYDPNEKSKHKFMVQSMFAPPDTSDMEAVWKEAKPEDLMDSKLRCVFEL

Assay [2] addresses MSP domain of mouse VAPB (residues 1-125) fused to GST (mouse (Mus musculus)) (UniProt Q9QY76). As to the kind of experiment: pull-down; GST-fused mVAPB on Glutathione Sepharose 4B beads; purified mMIGA2^275-570 (wild type or mutant) added, 2 h at 4 °C in buffer A (25 mM Tris-HCl pH 7.5, 150 mM NaCl, 5 mM DTT); washed with buffer A with 0.1% Triton X-100; 12% SDS-PAGE; both purified.

The target in assay [3] is MSP domain of mouse VAPB (residues 1-125) (mouse (Mus musculus)) (UniProt Q9QY76). As to the kind of experiment: ITC; Microcal ITC200, 25 °C, buffer C (25 mM Tris-HCl pH 7.5, 150 mM NaCl, 4 mM β-mercaptoethanol); 20 injections of 2 μl; 1:1 binding model; both purified.
Assay [4] deals with mouse MIGA2 LD targeting domain, residues 313-570 (mouse) (UniProt Q8BK03). As to the kind of experiment: SEC; Superdex 200 increase 10/300 GL, 25 mM Tris-HCl pH 7.5, 150 mM NaCl, 5 mM DTT; proteins injected at 2–4 mg/ml; elution compared with molecular mass standards; both purified. For orientation: Size exclusion chromatography separates by hydrodynamic size, large species first.

Results are given in words; binding and its absence hold for the method and conditions named.

As to “MSP domain of mouse VAPB (residues 1-125) (from UniProt Q9QY76 1-125) (domain or fragment)”, the binding result in assay [1] is “no binding”.

B1: mouse MIGA2 residues 275-570, wild type (domain or fragment, UniProt Q8BK03 275-570)
chain: T1 sequence
As for B1, the binding entry in assay [2] and in assay [3] was “no binding” each time.

B2: mouse MIGA2 LD targeting domain, residues 313-570 (domain or fragment, UniProt Q8BK03 313-570)
chain: SRPAAAYEEALQLVKEGRVPCRTLRTELLGCYSDQDFLAKLHCVRQAFEGLLEERSNQIFFGEVGRQMVTGLMTKAEKSPKGFLESYEEMLSYALRPETWATTRLELEGRGVACMSFFDIVLDFILMDAFEDLENPPSSVLAVLRNRWLSDSFKETALATACWSVLKAKRRLLMVPDGFISHFYSVSEHVSPVLAFGFLGPKPQLSEVCAFFKHQIVQYLRDMFDLDNVRYTSVPALAEDILQLSRRRSEILLGYLGA
With B2, the binding result in assay [4] is listed as “no binding (tested: 2–4 mg/ml)”.
